According to EP1382597A2, “Steroid receptor modulator compounds and methods” (LIGAND PHARMACEUTICALS, INC., priority 1994, dated 1996):
Some results were stated once for a whole list of compounds, not compound by compound.

Target: T1, human PR-B (Homo sapiens, UniProt P06401)
T1 construct: expressed in transfected cells; host or cells: CV-1 cells (African green monkey kidney fibroblasts), transient transfection
T1 sequence (P06401 1-933): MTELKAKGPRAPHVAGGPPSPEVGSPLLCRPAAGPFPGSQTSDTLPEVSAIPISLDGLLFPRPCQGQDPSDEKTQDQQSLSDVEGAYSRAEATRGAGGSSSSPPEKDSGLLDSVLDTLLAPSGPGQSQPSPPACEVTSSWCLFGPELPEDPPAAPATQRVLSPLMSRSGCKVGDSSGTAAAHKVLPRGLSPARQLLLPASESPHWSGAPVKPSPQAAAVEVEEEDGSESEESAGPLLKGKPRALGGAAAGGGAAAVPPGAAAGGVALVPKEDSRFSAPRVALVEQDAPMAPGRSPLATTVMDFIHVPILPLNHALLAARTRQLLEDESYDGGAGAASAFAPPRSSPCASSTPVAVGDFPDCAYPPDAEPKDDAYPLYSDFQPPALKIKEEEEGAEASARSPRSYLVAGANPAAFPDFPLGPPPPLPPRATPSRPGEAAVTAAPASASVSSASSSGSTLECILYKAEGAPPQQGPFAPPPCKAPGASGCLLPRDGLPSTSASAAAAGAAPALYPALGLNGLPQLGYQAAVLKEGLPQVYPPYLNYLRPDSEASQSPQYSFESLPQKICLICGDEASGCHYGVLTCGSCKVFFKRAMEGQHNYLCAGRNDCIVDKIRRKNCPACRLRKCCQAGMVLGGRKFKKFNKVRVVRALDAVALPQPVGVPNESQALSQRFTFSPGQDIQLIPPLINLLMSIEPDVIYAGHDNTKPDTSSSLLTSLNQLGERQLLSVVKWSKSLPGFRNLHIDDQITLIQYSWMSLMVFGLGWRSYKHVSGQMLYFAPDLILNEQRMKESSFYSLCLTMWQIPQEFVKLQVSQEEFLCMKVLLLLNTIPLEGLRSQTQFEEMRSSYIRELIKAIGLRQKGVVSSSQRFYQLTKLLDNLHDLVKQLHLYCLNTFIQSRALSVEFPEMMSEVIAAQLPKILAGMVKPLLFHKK
Experiment: Co-transfection assay, PR agonist activity;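 note: CV-1 cells (African green monkey kidney) co-transfected with receptor plasmid and hormone-responsive firefly luciferase reporter, agonism read as compound-dependent rise in luciferase signal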
Assay type: cell-based
Conditions: conclusion from Tables 1-5

Row | SMILES | PR agonist selectivity
1 | CC1=CC(C)(C)Nc2ccc3c(c21)C(c1ccc(Cl)cc1)Oc1ccccc1-3 (racemic) [Compound 163, (R/S)-5-(4-Chlorophenyl)-1,2-dihydro-2,2,4-trimethyl-5H-chromeno[3,4-f]quinoline] | highly selective PR agonists
2 | CC1=CC(C)(C)Nc2ccc3c(c21)C(c1cccc(F)c1)Oc1ccccc1-3 (racemic) [Compound 191, (R/S)-5-(3-Fluorophenyl)-1,2-dihydro-2,2,4-trimethyl-5H-chromeno[3,4-f]quinoline] | highly selective PR agonists
3 | CC1=CC(C)(C)Nc2ccc3c(c21)/C(=C/c1ccccc1C)Oc1ccc(F)cc1-3 [Compound 374, (Z)-9-Fluoro-1,2-dihydro-2,2,4-trimethyl-5-(2-methylbenzylidene)-5H-chromeno[3,4-f]quinoline] | highly selective PR agonists
